{"sequences": {"note": "Amino acid sequences for entries named in this document (tags omitted).", "UniProt P09630": "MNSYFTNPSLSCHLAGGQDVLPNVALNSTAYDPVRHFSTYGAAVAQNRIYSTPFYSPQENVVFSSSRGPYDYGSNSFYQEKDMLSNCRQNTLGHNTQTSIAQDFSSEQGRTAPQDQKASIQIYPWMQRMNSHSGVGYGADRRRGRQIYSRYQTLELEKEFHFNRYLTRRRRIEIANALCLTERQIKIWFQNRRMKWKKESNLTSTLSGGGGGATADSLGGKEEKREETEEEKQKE"}, "source": "paper PMC8016886", "target": "homeobox C6 (HOXC6), Flag-tagged, stably overexpressed in HCT116 cells (HOXC6-OE) (human) (UniProt P09630)", "experiment": "affinity purification with mass spectrometry; FLAG Immunoprecipitation Kit (Sigma FLAGIPT1) on lysates of HOXC6-OE and NC HCT116 cells; eluates identified by LC-MS/MS (Mascot search)", "note": "No constants are given. Whether binding was seen depends on the method and setting. Binding seen in cells or lysates may run through a third protein. Here binding means that the protein was enriched with, or labelled near, the bait; the list need not be complete."}
{"binder": "DKK1 (protein, UniProt O94907 32-266) TLNSVLNSNAIKNLPPPLGGAAGHPGSAVSAAPGILYPGGNKYQTIDNYQPYPCAEDEECGTDEYCASPTRGGDAGVQICLACRKRRKRCMRHAMCCPGNYCKNGICVSSDQNHFRGEIEETITESFGNDHSTLDGYSRRTTLSSKMYHTKGQEGSVCLRSSDCASGLCCARHFWSKICKPVLKEGQVCTKHRRKGSHGLEIFQRCYCGEGLSCRIQKDHHQASNSSRLHTCQRH", "values": [{"measurement": "binding", "result": "binds"}]}
